Reference: doi:10.1101/2023.04.27.535981
No constants are given. Whether binding was seen depends on the method and setting. Some entries that bind do so weakly or less than the wild type.

Tests used:
[1] = biological target: Cks1-Skp2-Skp1 complex (GST-Skp2-Skp1-His-Cks1) (UniProt Q13309); assay: ITC
[2] = biological target: Cks1-Skp2-Skp1 complex (GST-Skp2-Skp1-His-Cks1) (UniProt Q13309); assay: fluorescence polarisation

Row | Binder | binding [1] | binding [2]
1 | AGSVEQTPKK (TAMRA-Ahx (amino hexanoic acid) on the N-terminus; T(phos): phosphothreonine) [TAMRA-labelled 10-residue phosphorylated p27 peptide (TAMRA-Ahx-AGSVEQT(phos)PKK)] | binds | binds
2 | RQIKIWFQNRRMKWKK [cell-penetrating peptide Antp (…)] | no binding | –
